The values below come from article PMC7289602, “Measuring ligand-cell surface receptor affinities with axial line-scanning fluorescence correlation spectroscopy” (eLife, 2020).

Test [1] addresses xKremen2-mCherry co-expressed with unlabeled LRP6 (Xenopus laevis | human). Nature of the test: dual-color spinning disk confocal imaging of ligand staining on live cells; live NCI-H1703 cells transiently expressing xKremen2-mCherry, without or with unlabeled LRP6, in conditioned medium with four DKK1-eGFP concentrations.
The target in test [2] is (Xenopus laevis) xKremen2-mCherry (Xenopus laevis). Described as above.

These are yes or no findings as the source states them, for the method shown. A result given as binding can be weak or reduced; the word gives no strength. Tags and fused reporters may be left off the sequences shown.

B1: human Dickkopf1 fused to eGFP (DKK1-eGFP) (ligand, UniProt O94907 32-266, looked up)
chain: TLNSVLNSNAIKNLPPPLGGAAGHPGSAVSAAPGILYPGGNKYQTIDNYQPYPCAEDEECGTDEYCASPTRGGDAGVQICLACRKRRKRCMRHAMCCPGNYCKNGICVSSDQNHFRGEIEETITESFGNDHSTLDGYSRRTTLSSKMYHTKGQEGSVCLRSSDCASGLCCARHFWSKICKPVLKEGQVCTKHRRKGSHGLEIFQRCYCGEGLSCRIQKDHHQASNSSRLHTCQRH
notes: Dickkopf1 (DKK1), human; also called hDKK1-eGFP
For B1, the binding result in test [1] and in test [2] was “binds” throughout.
